Article PMC7819943, “Rice protein-binding microarrays: a tool to detect cis-acting elements near promoter regions in rice”
This is one part of the list.

Sequences of proteins named here, by UniProt entry; tags and fusion partners are left off.
UniProt Q0JBA9, entry or part of it: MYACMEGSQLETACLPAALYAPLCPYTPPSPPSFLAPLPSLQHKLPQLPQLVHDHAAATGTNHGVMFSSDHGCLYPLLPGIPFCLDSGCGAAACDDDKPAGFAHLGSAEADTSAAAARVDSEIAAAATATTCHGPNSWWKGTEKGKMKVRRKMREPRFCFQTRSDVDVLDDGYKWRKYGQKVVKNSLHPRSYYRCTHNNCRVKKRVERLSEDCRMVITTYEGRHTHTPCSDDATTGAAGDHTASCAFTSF

What follows are sequences tested against OsWRKY34 (Oryza sativa, UniProt Q0JBA9 1-250) (assay: protein-binding microarray (RPBM); PBS, 2% BSA, 51.3 ng/ul salmon testes DNA, 50 uM zinc acetate, 200 nM TF, 25 C, 1 h; high values mean tight binding). Conditions: protein: recombinant; tags: N-terminal polyhistidine and DsRed monomer fusion (pET32a); label: CyDye5-dUTP incorporated in the synthesized complementary strand; 3' TTTTT single-stranded linker to array surface; dsDNA, one strand shown.
Procedure, shortened: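 In PBS with 2% BSA, salmon testes DNA and 50 µM zinc acetate, 200 nM protein was incubated on a custom Agilent array at 25 °C for 1 h and then washed off. The array had been made double-stranded by primer extension with Cy5-dUTP and blocked with 2% BSA. The proteins were transcription factors fused N-terminally to polyhistidine and DsRed, expressed in E. coli BL21-CodonPlus and purified on Ni–NTA. The binding signal is per-feature fluorescence intensity (arbitrary units) from an Axon 4000B scanner.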

With “CTAACACTATTAGGTACTACTTCCTCGGTTTCATATTATACGGAGTCACCTAGTGCAG” as the sequence, how does the binding signal read?
Its binding signal is 9840 fluorescence intensity (a.u.).

How did the binding signal turn out when “ATTAATTGATTGGATTGGTTGTGTGCATTATTTCATCTAACGGAGTCACCTAGTGCAG” was run?
Its binding signal is 8380 fluorescence intensity (a.u.).

For “TTTCAGTAGCGTCGGCTGCTCTATCTACTTGCATTGCCTGCGGAGTCACCTAGTGCAG”, which binding signal is on record?
Its binding signal is 8320 fluorescence intensity (a.u.).

With “CTTCTCCCTTACGTTCCGTTTGCATCATCTGCCTTGCACACGGAGTCACCTAGTGCAG” as the sequence, how does the binding signal read?
The binding signal was 8640 fluorescence intensity (a.u.).

Which binding signal does the source give for “CGTTTCTCTTTCTTTCTTCCCTTCGGTTTCTCCTCCTCTCCGGAGTCACCTAGTGCAG” here?
The binding signal was 10600 fluorescence intensity (a.u.).

How did the binding signal turn out when “TCCTCTACTGGGGATGGGTGGAGAGTGAAGAAACCGACGCCGGAGTCACCTAGTGCAG” was run?
The binding signal was 8040 fluorescence intensity (a.u.).

With “TTTATACCCTCCTGATCAGTGCATCTAGTGCCGTCATCCTCGGAGTCACCTAGTGCAG” as the sequence, how does the binding signal read?
Its binding signal is 8160 fluorescence intensity (a.u.).

For “GAGTTTCCGTGTACAAATTTAATCGTTCGTCTTATTTAAACGGAGTCACCTAGTGCAG”, which binding signal is on record?
The binding signal was 13300 fluorescence intensity (a.u.).

Which binding signal does the source give for “GGCGGCTGGTCAGTACTTGCTTGCATCTGAATAGGAACTGCGGAGTCACCTAGTGCAG” here?
The binding signal was 8120 fluorescence intensity (a.u.).

How did the binding signal turn out when “TCGTATTTGTGTCCGATCATATTCGATTCTTATTTGTATTCGGAGTCACCTAGTGCAG” was run?
Its binding signal is 9480 fluorescence intensity (a.u.).

Which binding signal does the source give for “CATCCGATTGCCATATCCAACGGCGTCAATCTTCTCCCCACGGAGTCACCTAGTGCAG” here?
The binding signal was 8530 fluorescence intensity (a.u.).

With “CACCACTAGCATTCTTCTTCTCCATCCATCCATCCATCCACGGAGTCACCTAGTGCAG” as the sequence, how does the binding signal read?
The binding signal was 14200 fluorescence intensity (a.u.).

With “TAGATAACGTCATTGACTTTTTCTCACATATTTGACCATTCGGAGTCACCTAGTGCAG” as the sequence, how does the binding signal read?
Its binding signal is 12400 fluorescence intensity (a.u.).

Which binding signal does the source give for “GTCCTTGCTACGATTTTTATTACCCCATGGACCCCACCTTCGGAGTCACCTAGTGCAG” here?
The binding signal was 10800 fluorescence intensity (a.u.).

Which binding signal does the source give for “TTACGAACTCGCGCTGCCCCTTGCGCCCATGCCGTTGGCGCGGAGTCACCTAGTGCAG” here?
The binding signal was 8460 fluorescence intensity (a.u.).

How did the binding signal turn out when “GAATCTGGAACTGCTCTGGTGTTAATGTGACTTGTGTTGCCGGAGTCACCTAGTGCAG” was run?
Its binding signal is 10600 fluorescence intensity (a.u.).

For “CAGACCCTAAGCTTCAGACGCGGCCCCATCTACAGCCACTCGGAGTCACCTAGTGCAG”, which binding signal is on record?
Its binding signal is 8120 fluorescence intensity (a.u.).

With “ATTTAGTTCTCAACATACCCCTTTTCATCTTTTTGTCAGACGGAGTCACCTAGTGCAG” as the sequence, how does the binding signal read?
The binding signal was 8840 fluorescence intensity (a.u.).

Which binding signal does the source give for “TCCACCTGAGTATATATAGTTATCTTATAGCCTACTTCCTCGGAGTCACCTAGTGCAG” here?
Its binding signal is 11400 fluorescence intensity (a.u.).

Which binding signal does the source give for “AAAATCGGATATATTGCAAAACCATTTATTCGTGTGTTTTCGGAGTCACCTAGTGCAG” here?
The binding signal was 8310 fluorescence intensity (a.u.).

How did the binding signal turn out when “GAACGAACGAACACCACAAGGTGTCCACAACACAAAGCCGCGGAGTCACCTAGTGCAG” was run?
Its binding signal is 8250 fluorescence intensity (a.u.).

For “CGTTTTCATCTCGTAGTTGCTTGATTGATCTTCGAACTTTCGGAGTCACCTAGTGCAG”, which binding signal is on record?
The binding signal was 9250 fluorescence intensity (a.u.).

How did the binding signal turn out when “ATTAATTTCTGATCCCACCTGTCATACACATATTGTTTCTCGGAGTCACCTAGTGCAG” was run?
Its binding signal is 14300 fluorescence intensity (a.u.).

With “AATTTGTATTCAATGCTTCATACACGTGTCCAATGATTTACGGAGTCACCTAGTGCAG” as the sequence, how does the binding signal read?
Its binding signal is 8250 fluorescence intensity (a.u.).

For “ACCATCTCTCTATGGTACATCCCCGTAATGTTCTCTTACACGGAGTCACCTAGTGCAG”, which binding signal is on record?
The binding signal was 9210 fluorescence intensity (a.u.).

Which binding signal does the source give for “TGTATTGTTCTGAGTTACAGCAGATGTATCTCTTTTTTTTCGGAGTCACCTAGTGCAG” here?
The binding signal was 9710 fluorescence intensity (a.u.).

Which binding signal does the source give for “CTAACACTTAATTAATCACGCGATACTACATCGTCTTTTTCGGAGTCACCTAGTGCAG” here?
The binding signal was 9750 fluorescence intensity (a.u.).

How did the binding signal turn out when “CGAATTATTACGGCCATCCGTAGTCACCACCTCCTTTGACCGGAGTCACCTAGTGCAG” was run?
Its binding signal is 9100 fluorescence intensity (a.u.).

With “ACCCACTCACAGCTGATGATCATCAATCACTCCGGTAATTCGGAGTCACCTAGTGCAG” as the sequence, how does the binding signal read?
The binding signal was 10300 fluorescence intensity (a.u.).

For “GAGCCTACCTCTACACTCATGCTCACCGCCGCTGTTCCTCCGGAGTCACCTAGTGCAG”, which binding signal is on record?
Its binding signal is 8140 fluorescence intensity (a.u.).

With “GTGTCACTCGTGTAGTAGGATGGCAATGGGGCGGGTCGGGCGGAGTCACCTAGTGCAG” as the sequence, how does the binding signal read?
Its binding signal is 13800 fluorescence intensity (a.u.).

“CTGGGTTTTACATTTGGTCCGCTTCACACGCACCAACAGACGGAGTCACCTAGTGCAG” was tested. Which binding signal did it give?
Its binding signal is 9690 fluorescence intensity (a.u.).

Which binding signal does the source give for “CAAGCCGCTCCGCCTCGTTTCCATCGCCGCCACCACCGCCCGGAGTCACCTAGTGCAG” here?
Its binding signal is 8480 fluorescence intensity (a.u.).

With “TTTTCATCATTCTAGAGGATATCTCCTTGTTGTATCATCTCGGAGTCACCTAGTGCAG” as the sequence, how does the binding signal read?
Its binding signal is 8600 fluorescence intensity (a.u.).

Which binding signal does the source give for “TTCAAGTACGAATTCTTGACCCATCCGACGAGCTTTTACACGGAGTCACCTAGTGCAG” here?
Its binding signal is 12000 fluorescence intensity (a.u.).

Which binding signal does the source give for “GGGCAATTTGTTTCCCTCCGGAAGAATGTTCTTGACGAGTCGGAGTCACCTAGTGCAG” here?
The binding signal was 8120 fluorescence intensity (a.u.).

“ATCTCCATTTTCCTCTCTTTCTCGTTGCGATTTGAGAATTCGGAGTCACCTAGTGCAG” was tested. Which binding signal did it give?
The binding signal was 10100 fluorescence intensity (a.u.).

For “TGTGTTGGTAGTGTGGCATGACTTGGTTTCATTTGCACGGCGGAGTCACCTAGTGCAG”, which binding signal is on record?
Its binding signal is 8200 fluorescence intensity (a.u.).

With “AAACTTGCATTTCTCATTTTTTGCAGTTACATTTCTGATTCGGAGTCACCTAGTGCAG” as the sequence, how does the binding signal read?
The binding signal was 8980 fluorescence intensity (a.u.).

Which binding signal does the source give for “GGAGTTGTTCAGCTGCCTACGGTGTTGTTTCGCAGCCTCTCGGAGTCACCTAGTGCAG” here?
The binding signal was 10100 fluorescence intensity (a.u.).

How did the binding signal turn out when “TCCCTCCCTTGCTTGGTTGGTTGTACATGCTGCGAATCGACGGAGTCACCTAGTGCAG” was run?
The binding signal was 9210 fluorescence intensity (a.u.).

With “GAGTTATACCCAGTTTTCTCCCGGGAGAGATTGTCCCCAGCGGAGTCACCTAGTGCAG” as the sequence, how does the binding signal read?
The binding signal was 8160 fluorescence intensity (a.u.).
